EP0289204B1, “Lithium salt-containing pharmaceutical compositions” (EFAMOL HOLDINGS PLC, priority 1987, dated 1988)
At least one structure is not confirmed: it was looked up by name or label, or the drawing left a doubt.

Assay: Partition of lithium between water and chloroform/methanol (experiment A), lithium determined by flame photometry
Type: physicochemical
Conditions: 50 ml distilled water shaken with 250 ml chloroform/methanol (2/l by volume); range of five repeats
Experimental: Each 50 ml water contained 11.4 mg lithium.

Compound: [Cl-].[Li+] [Lithium chloride, reference compound]
- Percentage of total lithium in: Aqueous phase: 95-91%
